Source: the supplement of paper PMC8728848
Some of the results follow.

What was measured:
Test in all cases: glycan array binding signal (z-score within array); higher = stronger binding
Settings in all cases: glycan notation: IUPAC condensed, linker removed
[1] = target: Gal(b1-4)GlcNAc(b1-2)Man(a1-3)[Gal(b1-4)GlcNAc(b1-2)Man(a1-6)]Man(b1-4)GlcNAc(b1-4)[Fuc(a1-6)]GlcNAc
Method in brief: (§1)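 Arrays were curated from the Consortium for Functional Glycomics database, 3228 in total, and kept only where the protein sequence was available. Binding is expressed as a within-array Z-score. This score was averaged across arrays of the same protein sequence at different concentrations or buffers and across linkers, and negative values can be read as non-binding.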

[2] = target: Gal(b1-4)GlcNAc(b1-2)Man(a1-3)[Gal(b1-4)GlcNAc(b1-2)Man(a1-6)][Gal(b1-4)GlcNAc(b1-4)]Man(b1-4)GlcNAc(b1-4)[Fuc(a1-6)]GlcNAc
Method in brief: as §1

[3] = target: Gal(b1-4)GlcNAc(b1-2)Man(a1-3)[Gal(b1-4)GlcNAc(b1-2)Man(a1-6)][GlcNAc(b1-4)]Man(b1-4)GlcNAc(b1-4)[Fuc(a1-6)]GlcNAc
Method in brief: as §1

[4] = target: Gal(b1-4)GlcNAc(b1-2)Man(a1-3)[GlcNAc(b1-2)Man(a1-6)]Man(b1-4)GlcNAc(b1-4)GlcNAc
Method in brief: as §1

[5] = target: Gal(b1-4)GlcNAc(b1-2)Man(a1-3)[GlcNAc(b1-4)][Gal(b1-4)GlcNAc(b1-2)Man(a1-6)]Man(b1-4)GlcNAc(b1-4)GlcNAc
Method in brief: as §1

[6] = target: Gal(b1-4)GlcNAc(b1-2)Man(a1-3)[Man(a1-6)]Man(b1-4)GlcNAc(b1-4)GlcNAc
Method in brief: as §1

[7] = target: Gal(b1-4)GlcNAc(b1-2)Man(a1-6)Man(b1-4)GlcNAc(b1-4)GlcNAc
Method in brief: as §1

[8] = target: Gal(b1-4)GlcNAc(b1-2)Man(a1-6)[GlcNAc(b1-2)Man(a1-3)]Man(b1-4)GlcNAc(b1-4)GlcNAc
Method in brief: as §1

[9] = target: Gal(b1-4)GlcNAc(b1-2)Man(a1-6)[Man(a1-3)]Man(b1-4)GlcNAc(b1-4)GlcNAc
Method in brief: as §1

[10] = target: Gal(b1-4)GlcNAc(b1-2)[Gal(b1-4)GlcNAc(b1-4)]Man(a1-3)[Gal(b1-4)GlcNAc(b1-2)Man(a1-6)]Man(b1-4)GlcNAc(b1-4)GlcNAc
Method in brief: as §1

[11] = target: Gal(b1-4)GlcNAc(b1-2)[Gal(b1-4)GlcNAc(b1-4)]Man(a1-3)[Gal(b1-4)GlcNAc(b1-2)[Gal(b1-4)GlcNAc(b1-6)]Man(a1-6)]Man(b1-4)GlcNAc(b1-4)GlcNAc
Method in brief: as §1

[12] = target: Gal(b1-4)GlcNAc(b1-2)[Gal(b1-4)GlcNAc(b1-4)]Man(a1-3)[GlcNAc(b1-4)][Gal(b1-4)GlcNAc(b1-2)Man(a1-6)]Man(b1-4)GlcNAc(b1-4)GlcNAc
Method in brief: as §1

[13] = target: Gal(b1-4)GlcNAc(b1-2)[Gal(b1-4)GlcNAc(b1-4)]Man(a1-3)[GlcNAc(b1-4)][Gal(b1-4)GlcNAc(b1-2)[Gal(b1-4)GlcNAc(b1-6)]Man(a1-6)]Man(b1-4)GlcNAc(b1-4)GlcNAc
Method in brief: as §1

[14] = target: Gal(b1-4)GlcNAc(b1-2)[Gal(b1-4)GlcNAc(b1-6)]Man(a1-6)[Gal(b1-4)GlcNAc(b1-2)Man(a1-3)]Man(b1-4)GlcNAc(b1-4)GlcNAc
Method in brief: as §1

[15] = target: Gal(b1-4)GlcNAc(b1-2)[Gal(b1-4)GlcNAc(b1-6)]Man(a1-6)[Gal(b1-4)GlcNAc(b1-2)Man(a1-3)]Man(b1-4)GlcNAc(b1-4)[Fuc(a1-6)]GlcNAc
Method in brief: as §1

[16] = target: Gal(b1-4)GlcNAc(b1-2)[Gal(b1-4)GlcNAc(b1-6)]Man(a1-6)[GlcNAc(b1-4)][Gal(b1-4)GlcNAc(b1-2)Man(a1-3)]Man(b1-4)GlcNAc(b1-4)GlcNAc
Method in brief: as §1

[17] = target: Gal(b1-4)GlcNAc(b1-2)[Gal(b1-4)GlcNAc(b1-6)]Man(a1-6)[GlcNAc(b1-4)][Gal(b1-4)GlcNAc(b1-2)[Gal(b1-4)GlcNAc(b1-4)]Man(a1-3)]Man(b1-4)GlcNAc(b1-4)[Fuc(a1-6)]GlcNAc
Method in brief: as §1

[18] = target: Gal(b1-4)GlcNAc(b1-3)Gal(b1-3)GalNAc
Method in brief: as §1

[19] = target: Gal(b1-4)GlcNAc(b1-3)Gal(b1-3)GlcNAc
Method in brief: as §1

B1: Aap brpt (Staphylococcus epidermidis) (protein)
chain: VDGDPITSTEEIPFDKKREFDPNLAPGTEKVVQKGEPGTKTITTPTTKNPLTGEKVGEGEPTEKITKQPVDEIVHYGGEEIKTGHKDEFDPNAPKGSQTTQPGKPGVKNPDTGEVVTPPVDDVTKYGPVDGDPITSTEEIPFDKKREFDPNLAPGTEKVVQKGEPGTKTITTPTTKNPLTGEKVGEGEPTEKITKQPVDEIVHYGGEEIKPGHKDEFDPNAPKGSQEDVPGKPGVKNPDTGEVVTPPVDDVTKYGPVDGDSITSTEEIPFDKKREFDPNLAPGTEKVVQKGEPGTKTITTPTTKNPLTGEKVGEGEPTEKITKQPVDEIVHYGGEQIPQGHKDEFDPNAPVDSKTEVPGKPGVKNPDTGEVVTPPVDDVTKYGPVDGDSITSTEEIPFDKKREFDPNLAPGTEKVVQKGEPGTKTITTPTTKNPLTGEKVGEGKSTEKVTKQPVDEIVEYGPTK
[1]
  glycan array binding signal (z-score): 0.809
[2]
  glycan array binding signal (z-score): -0.738
[3]
  glycan array binding signal (z-score): 0.246
[4]
  glycan array binding signal (z-score): -0.003
[5]
  glycan array binding signal (z-score): -1.94
[6]
  glycan array binding signal (z-score): -0.706
[7]
  glycan array binding signal (z-score): -0.494
[8]
  glycan array binding signal (z-score): 0.331
[9]
  glycan array binding signal (z-score): 0.547
[10]
  glycan array binding signal (z-score): 0.146
[11]
  glycan array binding signal (z-score): 0.481
[12]
  glycan array binding signal (z-score): 0.586
[13]
  glycan array binding signal (z-score): -0.768
[14]
  glycan array binding signal (z-score): -1.94
[15]
  glycan array binding signal (z-score): 1.37
[16]
  glycan array binding signal (z-score): 0.189
[17]
  glycan array binding signal (z-score): -1.46
[18]
  glycan array binding signal (z-score): -0.487
[19]
  glycan array binding signal (z-score): -0.329
